These are yes or no findings as the source states them, for the method shown. In cells and extracts the contact can be indirect. Binding calls can cover weak binding; strength is not graded here.

The chains behind the UniProt entries cited, without tags or fusion partners. Where a name states a change or a piece, a line headed by the entry shows the natural chain unless it says otherwise. A line that says so, or that is headed by a name, gives the form on record, which may keep a tag or linker.
Orb2A (Q9VSR3, form named): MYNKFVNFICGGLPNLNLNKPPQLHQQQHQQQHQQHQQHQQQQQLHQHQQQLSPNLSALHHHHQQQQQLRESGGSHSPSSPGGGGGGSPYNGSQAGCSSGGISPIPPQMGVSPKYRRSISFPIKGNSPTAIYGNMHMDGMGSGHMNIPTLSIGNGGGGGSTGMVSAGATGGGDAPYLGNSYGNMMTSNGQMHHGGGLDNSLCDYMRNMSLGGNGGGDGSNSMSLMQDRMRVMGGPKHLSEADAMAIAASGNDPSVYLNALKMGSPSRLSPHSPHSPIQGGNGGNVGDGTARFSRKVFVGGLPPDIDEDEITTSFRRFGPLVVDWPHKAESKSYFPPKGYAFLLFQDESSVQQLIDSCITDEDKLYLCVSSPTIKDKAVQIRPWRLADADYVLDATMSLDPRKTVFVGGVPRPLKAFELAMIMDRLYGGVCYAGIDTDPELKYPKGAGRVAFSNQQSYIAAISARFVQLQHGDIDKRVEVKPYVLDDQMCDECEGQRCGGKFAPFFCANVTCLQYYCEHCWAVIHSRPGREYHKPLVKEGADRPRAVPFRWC
UniProt Q9VFV9: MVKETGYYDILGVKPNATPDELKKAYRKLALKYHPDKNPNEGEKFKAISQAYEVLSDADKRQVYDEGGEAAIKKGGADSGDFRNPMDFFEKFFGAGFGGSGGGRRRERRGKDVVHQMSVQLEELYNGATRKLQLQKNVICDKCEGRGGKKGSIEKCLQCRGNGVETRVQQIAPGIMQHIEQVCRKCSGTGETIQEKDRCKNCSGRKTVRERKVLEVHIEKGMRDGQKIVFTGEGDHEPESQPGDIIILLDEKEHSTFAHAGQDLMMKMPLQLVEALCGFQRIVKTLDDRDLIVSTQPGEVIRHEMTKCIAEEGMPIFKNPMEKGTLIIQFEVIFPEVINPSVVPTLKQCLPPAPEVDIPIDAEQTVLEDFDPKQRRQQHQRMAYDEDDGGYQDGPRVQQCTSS
UniProt Q9VNW0: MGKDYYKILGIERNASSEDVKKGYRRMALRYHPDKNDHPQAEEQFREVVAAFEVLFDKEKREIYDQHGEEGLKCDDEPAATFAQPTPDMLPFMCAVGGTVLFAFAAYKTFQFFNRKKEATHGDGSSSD

In the test the target is Orb2A (Drosophila) (UniProt Q9VSR3). Put plainly: co-IP.

Take DroJ2-HA (from UniProt Q9VFV9): the binding result was “binds”.

With CG7130-HA (from UniProt Q9VNW0), the binding entry is “binds”.
